Among all 320,000 compounds or so, about 22,000 (6.9%) were called active. The shares of active, inactive and inconclusive entries below differ from those in the screen. Calls come from the whole dose curve; as a rule, active = well fitted inhibition curve with a large enough effect; inconclusive = small, poorly fitted or top-dose-only effect, or another doubt; inactive = no such curve, though single readings can be large or run the other way. Potencies of inconclusive entries are doubtful fits and often do not repeat.
Assay: Primary qHTS for delayed death inhibitors of the malarial parasite plastid, 96 hour incubation
Conditions: P. falciparum luciferase reporter growth; series mostly up to 28.7 µM
Procedure, shortened: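 Compounds incubated with erythrocytes infected by luciferase-expressing P. falciparum (2% hematocrit, 0.05% parasitemia final) for 96 hours, 37 C in 5% CO2. Growth inhibition scored as decreased luciferase luminescence.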
Potency is the fitted concentration of half-maximal effect.

SMILES	Potency
COc1ccc(C2/C(=C(/O)c3ccc(Br)cc3)C(=O)C(=O)N2C)cc1OC (stereo not given)	inconclusive: 14.7 µM [inhibitor, single point]
CCOC(=O)CC1=C(C(=O)OCC)C(c2ccc(C)o2)C(C#N)=C(N)O1 (stereo not given)	inconclusive: 11.7 µM [inhibitor, partial curve, poor fit]
CC(=O)Nc1ccc(S(=O)(=O)NCCC(=O)N2CCc3ccccc32)cc1	inactive
COc1ccc(C(=O)Nc2ccc(NC(=O)CSc3nnc(-c4ccncc4)n3C)cc2)cc1	inconclusive: 18.5 µM [inhibitor, single point]
CC1(C)CC(=O)C2=C(C1)Oc1nc3ccccc3cc1C2C(C#N)C#N (stereo not given)	inactive
COc1cccc(C(=O)N2CCN(Cc3cc(Br)ccc3OC)CC2)c1	inconclusive: 13.1 µM [inhibitor, single point]
CN(NC(=O)c1ccc(Cl)cc1)c1nc(-c2ccccc2)nnc1C(F)(F)F	inactive
Oc1ccc(C2Nc3cccc4cccc(c34)N2)c(O)c1	active: 1.47 µM
O=C(NCCC1=CCCCC1)C1CCCN(S(=O)(=O)c2ccccc2)C1 (stereo not given)	inconclusive: 6.57 µM [inhibitor, partial curve, poor fit]
O=C(CCCC(=O)N/N=C\c1ccccn1)N/N=C\c1ccccn1	inconclusive: 9.28 µM [inhibitor, single point]
COc1ccc(C(=O)NCCCSC)cc1OC1CCN(C(C)C)CC1	inactive
O=C(OCC(=O)N1CCc2ccccc2C1)c1ccc(N2CCOCC2)c([N+](=O)[O-])c1	inconclusive: 10.4 µM [inhibitor, single point]
CSc1ccc(/C=C2\C(=N)N3N=C(CC(=O)N4CCOCC4)SC3=NC2=O)cc1	inconclusive: 20.8 µM [inhibitor, single point]
O=[N+]([O-])c1ccc(C(=S)N2CCN(c3ccc(F)cc3)CC2)cc1	inconclusive: 18.5 µM [inhibitor, single point]
COc1ccc(S(=O)(=O)NCc2ccco2)cc1-c1nnc2c3ccccc3c(C)nn12	inconclusive: 4.15 µM [inhibitor, single point]
CC(NC(=O)c1cc2c(s1)CCCC2)C(C)(C)C (stereo not given)	inconclusive: 6.57 µM [inhibitor, partial curve, poor fit]
Cc1cc(C)nc(Nc2n[nH]c(Cc3ccccc3)n2)n1	inconclusive: 9.28 µM [inhibitor, partial curve, poor fit]
COC(=O)c1nc(NC(=O)c2ccccc2)n[nH]1	inconclusive: 0.0928 µM [inhibitor, partial curve, poor fit]
CC(Cc1ccccc1)C(=O)N[C@@H](CO)Cc1ccccc1 (stereo not given in full)	inconclusive: 18.5 µM [inhibitor, single point]
Cc1csc(-c2cnn(-c3ccccc3)c2NC(=O)c2ccccc2)n1	inconclusive: 8.28 µM [inhibitor, partial curve]

SMILES	Potency
CC(C)(C)c1ccc(S(=O)(=O)N2CCSC2)cc1	inconclusive: 10.4 µM [inhibitor, partial curve]
O=C(/C=C/c1cn(-c2ccccc2)nc1-c1ccc2c(c1)OCCO2)NCCCN1CCOCC1	inconclusive: 11.7 µM [inhibitor, single point]
Cn1nnc(NC(=O)c2ccc3ccccc3c2)n1	inconclusive: 18.5 µM [inhibitor, single point]
Cc1cc(C)c(NC(=O)CSc2nc3ccncc3[nH]2)c(C)c1	inconclusive: 18.5 µM [inhibitor, single point]
Cc1sc(NC(=O)c2ccco2)c(C(c2cccnc2)N2CCN(CCO)CC2)c1C (stereo not given)	inconclusive: 18.5 µM [inhibitor, single point]
Cc1ccccc1-n1c(Cn2c(=O)sc3ccccc32)nnc1SCC(=O)Nc1nccs1	inconclusive: 7.38 µM [inhibitor, partial curve]
O=C(c1ccc(Cl)cc1)C1CCCN(Cc2ccc3nonc3c2)C1 (stereo not given)	active: 10.4 µM
CC(C)NC(=O)C1CCN(c2ccc(S(=O)(=O)N3CCOCC3)cc2Cl)CC1	inconclusive: 18.5 µM [inhibitor, single point]
N#CCCN(C(=O)COC(=O)c1ccc2c(=O)n3c(nc2c1)CCC3)c1ccc(F)cc1	inactive
Cc1ccc(NNS(=O)(=O)c2ccc(C)cc2)cc1	inconclusive: 9.28 µM [inhibitor, single point]
COc1ccc([C@@H]2[C@@H]3C(=O)N(C(C)(C)C)C(=O)[C@@H]3[C@]3(Cc4ccccc4)C(=O)N(c4ccc(C(F)(F)F)cc4)C(=O)N23)cc1	active: 5.86 µM
CCN1C(=O)[C@H]2[C@@H](c3ccc(-c4ccc(F)cc4)cc3)N[C@@](CC(C)C)(C(=O)OC)[C@H]2C1=O	active: 5.22 µM
COC(=O)CN(c1ccccc1OC)S(=O)(=O)c1ccccc1	inconclusive: 13.1 µM [inhibitor, partial curve]
CC1C/C(=N\NC(=O)c2ccc(NS(=O)(=O)c3ccc(Br)cc3)cc2)CC(C)(C)C1 (stereo not given)	inconclusive: 0.828 µM [inhibitor, partial curve, poor fit]
Cc1ccnc(NC(=O)CCNC(=O)c2ccc(Cl)cc2)c1	inconclusive: 5.22 µM [inhibitor, partial curve, poor fit]
COc1cccc(CNC(=O)c2nnn(-c3ccc(OC(F)(F)F)cc3)c2N)c1	inconclusive: 6.57 µM [inhibitor, single point]
Cc1ccc(C(C(=O)NC2CCCC2)N(C(=O)CCC(=O)Nc2cc(C)on2)c2ccccc2)cc1 (stereo not given)	inactive
CC(O/N=C/c1ccc(OC(F)F)cc1)C(=O)Nc1cccc(S(=O)(=O)N2CCOCC2)c1 (stereo not given)	inconclusive: 18.5 µM [inhibitor, single point]
Cc1cccc(NC(=O)c2ccc(N3CCOCC3)c([N+](=O)[O-])c2)n1	inactive
O=[N+]([O-])c1cc([N+](=O)[O-])c(Oc2cccc(Cl)c2Cl)cc1NN1CCCCC1	inconclusive: 18.5 µM [inhibitor, single point]

Some of these compounds in order of formula weight, falling.
SMILES	Potency
Cc1ccccc1-n1c(Cn2c(=O)sc3ccccc32)nnc1SCC(=O)Nc1nccs1	inconclusive: 7.38 µM [inhibitor, partial curve]
Cc1cc(C)nc(Nc2n[nH]c(Cc3ccccc3)n2)n1	inconclusive: 9.28 µM [inhibitor, partial curve, poor fit]
COC(=O)c1nc(NC(=O)c2ccccc2)n[nH]1	inconclusive: 0.0928 µM [inhibitor, partial curve, poor fit]

Reference: PubChem BioAssay AID504834 (National Center for Advancing Translational Sciences (NCATS), 2011)
